{"source": "patent US6063766A", "about": "“Transport protein which effects the transport of cationic xenobiotics and/or pharmaceuticals, DNA sequences encoding it and their use” (priority 1994, dated 2000)", "origin": "cited, not measured here", "target": "MPP uptake in hepatocytes", "settings": "cultured hepatocytes; cited from earlier work", "note": "At least one structure is not confirmed: it was looked up by name or label, or the drawing left a doubt.", "data": [{"compound": "C[n+]1ccc(-c2ccccc2)cc1", "note": "[1-Methyl-4-phenylpyridinium]", "values": [{"measurement": "Ki", "value": 13, "unit": "µM"}]}]}
